## Cleaved PARP after 72 h of treatment

Values as published with doi:10.1371/journal.pone.0140310, rounded.

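Human melanoma cell lines in 1,536-well plates were treated with two drugs together for 72 h, then fixed, stained and imaged. Values are the share of nuclei positive for cleaved PARP as a percentage of the same share in the DMSO control: 100 is the control level, higher means more apoptosis. Concentrations were fixed for each drug; these are the higher of two levels. These are primary screening values without error estimates. The marker varies much from line to line, for technical or biological reasons.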 An unselected part of the screen is shown.

Drug key:
VX-702, 2000 nM: NC(=O)c1ccc(N(C(N)=O)c2c(F)cccc2F)nc1-c1ccc(F)cc1F
decitabine, 500 nM: Nc1ncn([C@H]2C[C@H](O)[C@@H](CO)O2)c(=O)n1
L-779450, 1000 nM: Oc1cc(-c2nc(-c3ccccc3)[nH]c2-c2ccncc2)ccc1Cl
darinaparsin, 2000 nM: C[As](C)SC[C@H](NC(=O)CC[C@H](N)C(=O)O)C(=O)NCC(=O)O
SU6656, 2000 nM: CN(C)S(=O)(=O)c1ccc2c(c1)/C(=C/c1cc3c([nH]1)CCCC3)C(=O)N2
vorinostat, 400 nM: O=C(CCCCCCC(=O)Nc1ccccc1)NO
bortezomib, 5 nM: CC(C)C[C@H](NC(=O)[C@H](Cc1ccccc1)NC(=O)c1cnccn1)B(O)O

Pair | MEL-HO
darinaparsin + SU6656 | 85.7
VX-702 + darinaparsin | 39.0
bortezomib + SU6656 | 209
SU6656 + vorinostat | 209
decitabine + SU6656 | 94.8
decitabine + L-779450 | 109
VX-702 + SU6656 | 72.7
L-779450 + SU6656 | 52.2
VX-702 + bortezomib | 383
vorinostat + decitabine | 87.3
darinaparsin + L-779450 | 69.2
decitabine + darinaparsin | 87.6
darinaparsin + vorinostat | 158
vorinostat + VX-702 | 75.3
bortezomib + L-779450 | 98.6
bortezomib + decitabine | 339
VX-702 + L-779450 | 166
VX-702 + decitabine | 142
bortezomib + vorinostat | 275
darinaparsin + bortezomib | 88.4
L-779450 + vorinostat | 118